Results deposited as PubChem BioAssay AID686938 (Drosophila RNAi Screening Center, 2013)
Purpose: 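Fly genes required for calcium entry once internal stores are emptied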 (primary screen). Cell system: Drosophila S2R+ cells. Reagent: long dsRNA against Drosophila genes, about 0.25 µg dsRNA per well, roughly 10,000 cells. Timing: 5 days of knock-down before the calcium assay. Treatment: thapsigargin (SERCA pump blocker) to empty calcium stores; entry signal taken 4 min after adding it. Measurement: 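Duplicate raw fluo-4 intensities per well from a plate reader, at rest and four minutes after thapsigargin emptied calcium stores; entry-to-rest ratio filled for only some wells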. Direction: calcium entry signal: higher = stronger calcium signal after store depletion; entry to resting ratio: higher = more calcium entry relative to resting level; resting calcium signal: higher = higher resting calcium signal. Active means: 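Called when the plate z-score of the entry-to-rest ratio, mean of duplicates, falls below −3; wells with low overall dye signal (Fmax z below −2) or more than five off-targets excluded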. Meaning of the calls: active = strongly reduced calcium entry; inactive = no strong reduction.
The deposit covers about 23,000 reagents; shown is an unselected part of those that have a named target and a result. In the full data, 75 (0.33%) were called active. 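Raw plate signals without normalisation; calls rest on plate z-scores that were not deposited; ratio present for only 364 wells.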 Reagents against one gene are numbered here. No sequences are given here. Not stated in the record: the dose of the treatment.

Gene | reagent | calcium entry signal, replicate 1 (fluorescence units) | calcium entry signal, replicate 2 (fluorescence units) | entry to resting ratio | resting calcium signal, replicate 1 (fluorescence units) | resting calcium signal, replicate 2 (fluorescence units) | Call
CG46298 | 1 | 3.53e7 | 4.56e7 | – | 1.77e7 | 2.07e7 | inactive
inaD (inactivation no afterpotential D) | 1 | 4.30e7 | 5.10e7 | – | 2.15e7 | 2.27e7 | inactive
mRpS10 (mitochondrial ribosomal protein S10) | 1 | 3.77e7 | 4.72e7 | – | 1.71e7 | 7.53e7 | inactive
CG17030 | 1 | 3.19e7 | 5.95e7 | – | 1.49e7 | 2.33e7 | inactive
CG8326 | 1 | 3.47e7 | 3.20e7 | – | 1.69e7 | 1.59e7 | inactive
CG2680 | 1 | 4.54e7 | 4.79e7 | 2 | 2.28e7 | 2.02e7 | inactive
Vm26Ab (Vitelline membrane 26Ab) | 1 | 3.79e7 | 3.10e7 | – | 1.80e7 | 1.68e7 | inactive
dan (distal antenna) | 1 | 3.87e7 | 3.64e7 | – | 1.92e7 | 1.46e7 | inactive
bif (bifocal) | 1 | 2.97e7 | 2.56e7 | – | 1.37e7 | 1.18e7 | inactive
bif (bifocal) | 2 | 2.88e7 | 3.62e7 | – | 1.31e7 | 1.69e7 | inactive
CG31544 (retired record) | 1 | 2.91e7 | 3.95e7 | – | 1.42e7 | 1.78e7 | inactive
Cht7 (Chitinase 7) | 1 | 3.85e7 | 2.67e7 | – | 2.59e7 | 1.09e7 | inactive
Cht7 (Chitinase 7) | 2 | 3.81e7 | 4.11e7 | – | 2.15e7 | 2.08e7 | inactive
Ythdc1 (YTH domain containing 1) | 1 | 4.65e7 | 3.51e7 | – | 2.98e7 | 1.62e7 | inactive
SCAP (SREBP cleavage activating protein) | 1 | 4.95e7 | 4.65e7 | – | 2.39e7 | 2.19e7 | inactive
SCAP (SREBP cleavage activating protein) | 2 | 3.57e7 | 3.73e7 | – | 1.99e7 | 1.88e7 | inactive
ScpX | 1 | 5.12e7 | – | – | 2.33e7 | – | inactive
PGAP3 (Post-GPI attachment to proteins 3) | 1 | 3.87e7 | – | – | 1.95e7 | – | inactive
Drak (Death-associated protein kinase related) | 1 | 3.59e7 | 6.38e7 | – | 2.16e7 | 3.37e7 | inactive
Drak (Death-associated protein kinase related) | 2 | 3.10e7 | 3.34e7 | – | 1.56e7 | 1.62e7 | inactive
IA-2 (IA-2 protein tyrosine phosphatase) | 1 | 4.88e7 | 6.33e7 | – | 2.85e7 | 2.86e7 | inactive
IA-2 (IA-2 protein tyrosine phosphatase) | 2 | 4.34e7 | – | – | 2.54e7 | – | inactive
IA-2 (IA-2 protein tyrosine phosphatase) | 3 | 3.42e7 | 3.66e7 | – | 1.89e7 | 1.60e7 | inactive
SmydA-2 (SET and MYND domain containing, arthropod-specific, member 2) | 1 | 1.83e7 | 3.75e7 | – | 9.59e6 | 1.62e7 | inactive
CG31122 | 1 | 4.54e7 | 4.64e7 | – | 1.97e7 | 2.45e7 | inactive
CG31122 | 2 | 4.23e7 | 5.18e7 | – | 5.08e7 | 2.30e7 | inactive
WRNexo (WRN exonuclease) | 1 | 4.83e7 | 4.35e7 | – | 2.19e7 | 1.81e7 | inactive

Records listed so far whose gene name begins with I or i:
Gene | reagent | calcium entry signal, replicate 1 (fluorescence units) | calcium entry signal, replicate 2 (fluorescence units) | entry to resting ratio | resting calcium signal, replicate 1 (fluorescence units) | resting calcium signal, replicate 2 (fluorescence units) | Call
inaD (inactivation no afterpotential D) | 1 | 4.30e7 | 5.10e7 | – | 2.15e7 | 2.27e7 | inactive
IA-2 (IA-2 protein tyrosine phosphatase) | 1 | 4.88e7 | 6.33e7 | – | 2.85e7 | 2.86e7 | inactive
IA-2 (IA-2 protein tyrosine phosphatase) | 2 | 4.34e7 | – | – | 2.54e7 | – | inactive
IA-2 (IA-2 protein tyrosine phosphatase) | 3 | 3.42e7 | 3.66e7 | – | 1.89e7 | 1.60e7 | inactive

Further reagents:
Gene | reagent | calcium entry signal, replicate 1 (fluorescence units) | calcium entry signal, replicate 2 (fluorescence units) | entry to resting ratio | resting calcium signal, replicate 1 (fluorescence units) | resting calcium signal, replicate 2 (fluorescence units) | Call
CG7029 | 1 | 4.41e7 | 3.91e7 | – | 1.81e7 | 1.58e7 | inactive
Cyp12c1 (Cytochrome P450 12c1) | 1 | 2.97e7 | 4.06e7 | – | 1.37e7 | 2.65e7 | inactive
exd (extradenticle) | 1 | 4.52e7 | 2.77e7 | – | 2.28e7 | 1.43e7 | inactive
CG33170 | 1 | 2.57e7 | 3.68e7 | – | 1.13e7 | 1.59e7 | inactive
CG33170 | 2 | 3.88e7 | 4.78e7 | – | 1.84e7 | 2.76e7 | inactive
CG17219 | 1 | 1.84e7 | 1.95e7 | – | 9.68e6 | 9.93e6 | inactive
GstD5 (Glutathione S transferase D5) | 1 | 3.08e7 | 3.17e7 | – | 1.53e7 | 1.55e7 | inactive
CG7182 | 1 | 3.29e7 | 1.82e7 | – | 2.34e7 | 8.69e6 | inactive
CG18558 | 1 | 3.27e7 | 3.96e7 | – | 1.64e7 | 1.75e7 | inactive
CG18558 | 2 | 2.45e7 | 3.18e7 | – | 1.36e7 | 1.41e7 | inactive
Eno (Enolase) | 1 | 2.98e7 | 4.46e7 | – | 1.62e7 | 1.82e7 | inactive
CG2246 | 1 | 5.35e7 | 6.96e7 | – | 2.51e7 | 3.04e7 | inactive
CG16786 | 1 | 3.13e7 | 3.83e7 | – | 1.76e7 | 1.78e7 | inactive
NetB (Netrin-B) | 1 | 3.02e7 | 2.99e7 | – | 1.41e7 | 1.37e7 | inactive
tyf (twenty-four) | 1 | 3.47e7 | 4.91e7 | – | 1.79e7 | 2.28e7 | inactive
CG11668 | 1 | 2.73e7 | 3.80e7 | – | 1.53e7 | 5.51e7 | inactive
Girdin | 1 | 2.97e7 | 3.51e7 | – | 1.56e7 | 1.57e7 | inactive
Pkd2 (Polycystic kidney disease 2) | 1 | 4.28e7 | 3.16e7 | – | 1.94e7 | 1.41e7 | inactive
TwdlT (TweedleT) | 1 | 3.56e7 | 4.90e7 | – | 1.91e7 | 2.00e7 | inactive
TwdlT (TweedleT) | 2 | 4.08e7 | 3.57e7 | – | 2.29e7 | 1.78e7 | inactive
SdhBL (Succinate dehydrogenase, subunit B (iron-sulfur)-like) | 1 | 5.43e7 | 4.37e7 | – | 2.41e7 | 1.84e7 | inactive
CG42855 | 1 | 5.86e7 | 5.70e7 | – | 2.66e7 | 2.82e7 | inactive
beat-IIIb (beaten path IIIb) | 1 | 3.71e7 | 2.57e7 | – | 1.78e7 | 1.22e7 | inactive
CG42322 | 1 | 4.43e7 | 3.13e7 | – | 1.91e7 | 1.52e7 | inactive
CG42322 | 2 | 4.75e7 | 4.65e7 | – | 6.97e7 | 2.13e7 | inactive
CG42322 | 3 | 4.15e7 | 5.73e7 | – | 6.21e7 | 2.86e7 | inactive
SH3PX1 (SH3 and PX domain containing 1) | 1 | 3.45e7 | 4.45e7 | – | 1.97e7 | 2.17e7 | inactive
Su(z)3 (retired record) | 1 | 1.45e7 | 3.05e7 | – | 1.06e7 | 1.41e7 | inactive
Su(z)3 (retired record) | 2 | 6.46e7 | 2.89e7 | – | 2.77e7 | 1.15e7 | inactive
ems (empty spiracles) | 1 | 3.72e7 | 4.56e7 | – | 1.92e7 | 7.82e7 | inactive
Spn55B (Serpin 55B) | 1 | 3.54e7 | 4.46e7 | – | 1.62e7 | 2.43e7 | inactive
Spn55B (Serpin 55B) | 2 | 2.09e7 | 3.75e7 | – | 1.07e7 | 1.90e7 | inactive
